Measurements reported in PubChem BioAssay AID504744 (Drosophila RNAi Screening Center, 2011)
The deposit covers about 23,000 reagents; below is a random part of those that have a named target and a result. Over the whole deposit, 98 (0.43%) were called active. 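Only hit calls are given; the phospho-dAkt signals, z-scores and hit direction were not deposited.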 Names joined by + are all predicted targets of the reagent.

Aim: 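Identify dsRNAs that increase or decrease phospho-dAkt after insulin treatment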 (primary screen)
Cells: Drosophila Kc167 cells
Reagents: long dsRNA against Drosophila genes, 250 ng dsRNA per well of a 384-well plate
Time to read-out: 3 days of knock-down, then overnight serum-free starvation before stimulation
Challenge: bovine insulin at 387 nM for 10 minutes after 12 h without serum
Measurement: 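In-cell antibody fluorescence for phospho-dAkt in each well over DNA-dye signal, with log2 residuals expressed as z-scores adjusted for cell count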
Rule for the call: 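Under insulin, a gene counts as a hit if the average z-score of two replicates lies above 2.5 or below -2.5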

Gene,DRSC id,activity call
Or65a,DRSC08808,inactive
Pss,DRSC11757,inactive
CAH7,DRSC15524,inactive
CG8642,DRSC07228,inactive
Pex10,DRSC08599,inactive
Pex10,DRSC22021,inactive
CG9427,DRSC16490,inactive
MED31,DRSC12142,inactive
HP1b,DRSC18418,inactive
Ugt35A1,DRSC16892,inactive
inaE,DRSC19376,inactive
inaE,DRSC19377,inactive
inaE,DRSC19379,inactive
inaE,DRSC19726,inactive
side-II,DRSC01427,inactive
side-II,DRSC01429,inactive
side-II,DRSC01913,inactive
side-II,DRSC01932,inactive
side-II,DRSC02480,inactive
side-II,DRSC22508,inactive
Cyp313a1,DRSC16624,inactive
Dhit,DRSC07411,inactive
rn,DRSC12500,inactive
rn,DRSC12543,inactive
rn,DRSC12544,inactive
rn,DRSC12546,inactive
rn,DRSC22291,inactive
CG11068,DRSC19369,inactive
Oatp30B,DRSC02727,inactive
CG33461,DRSC22892,inactive
Ptp99A,DRSC13933,inactive
Ptp99A,DRSC13939,inactive
Ptp99A,DRSC14319,inactive
Ptp99A,DRSC14320,inactive
Ptp99A,DRSC16803,inactive
Ptp99A,DRSC22125,inactive
Ptp99A,DRSC22477,inactive
polyph,DRSC06254,inactive
fd96Ca,DRSC16946,inactive
fzr,DRSC18781,inactive
CG13113,DRSC02211,inactive
CG15393 (retired record),DRSC00407,inactive
CG9519,DRSC20195,inactive
Ncc69,DRSC10412,inactive
Ncc69,DRSC10413,inactive
CG11000,DRSC12158,inactive
CR42548,DRSC09514,inactive
CG6287,DRSC02947,inactive
dpr20,DRSC08265,inactive
SAK,DRSC11879,inactive
Cdc6,DRSC10563,inactive
CG13121 (retired record),DRSC02217,inactive
l(2)34Fd,DRSC01911,inactive
CG40551 (retired record),DRSC21229,inactive
CG31198,DRSC15891,inactive
CG15514,DRSC15053,inactive
CG14540,DRSC14884,inactive
Actbeta,DRSC17185,inactive
Actbeta,DRSC17217,inactive
CG31224,DRSC15272,inactive
CG31224,DRSC16290,inactive
CG43322,DRSC02280,inactive
Mfe2,DRSC19869,inactive
dod,DRSC20577,inactive
grass,DRSC15911,inactive
CG34347,DRSC14047,inactive
CG34347,DRSC14305,inactive
CG34347,DRSC15104,inactive
CG34347,DRSC15105,inactive
Dgkepsilon,DRSC07399,inactive
CG12009,DRSC08217,inactive
Zip99C,DRSC16320,inactive
Cds,DRSC10938,inactive

Records above whose gene name begins with I or i (4):
Gene,DRSC id,activity call
inaE,DRSC19376,inactive
inaE,DRSC19377,inactive
inaE,DRSC19379,inactive
inaE,DRSC19726,inactive

The listing continues:
Gene,DRSC id,activity call
Cenp-C,DRSC14371,inactive
naz,DRSC14790,inactive
naz,DRSC16199,inactive
CG1943,DRSC12576,inactive
Rev1,DRSC08264,inactive
CG32302,DRSC08340,inactive
CG1773,DRSC06688,inactive
CG1265,DRSC08288,inactive
by,DRSC16482,inactive
Vps13D,DRSC09818,inactive
Vps13D,DRSC09819,inactive
CG14655,DRSC12241,inactive
CG4956,DRSC15683,inactive
amx,DRSC18736,inactive
Dop1R1,DRSC13021,inactive
Dop1R1,DRSC16652,inactive
CG13272,DRSC02249,inactive
CG13272,DRSC22910,inactive
step,DRSC03694,inactive
step,DRSC03699,inactive
Ube3a,DRSC10600,inactive
Ank2,DRSC08894,inactive
Ank2,DRSC09666,inactive
Ank2,DRSC10338,inactive
Ank2,DRSC11278,inactive
Ank2,DRSC22922,inactive
CG13725,DRSC10054,inactive
PIG-C,DRSC08241,inactive
snoRNA:Me28S-A982b + Uhg4 + snoRNA:Me28S-G3255a + 1 more,DRSC05143,inactive
CG10898,DRSC14279,inactive
CG8677 + CG31626,DRSC01838,inactive
CG10809,DRSC09802,inactive
lncRNA:CR32661,DRSC19794,inactive
CG6788,DRSC20007,inactive
egh,DRSC18771,inactive
CG14196,DRSC19551,inactive
CG14736,DRSC14956,inactive
CG15864,DRSC15122,inactive
CG17359,DRSC10265,inactive
CG31875,DRSC21975,inactive
DCTN4-p62,DRSC06101,inactive
CG30414,DRSC04372,inactive
Tbce,DRSC04897,inactive
Jarid2,DRSC10372,inactive
CG4984 + CG4975,DRSC06907,inactive
CG4984 + CG4975,DRSC06908,inactive
CG11211,DRSC04851,inactive
CG8320 + ATPCL,DRSC07147,inactive
Pura,DRSC08891,inactive
Pura,DRSC10862,inactive
Pura,DRSC10864,inactive
Pura,DRSC10865,inactive
Pura,DRSC10866,inactive
Fer1HCH,DRSC16671,inactive
Csgalnact,DRSC06228,inactive
CG13876,DRSC08346,inactive
Fis1,DRSC07772,inactive
CG8774,DRSC16445,inactive
RpL10Ab,DRSC10798,inactive
CG10000,DRSC14170,inactive
Rh6,DRSC16823,inactive
CG3078,DRSC18531,inactive
Obp58c,DRSC04166,inactive
CG31872,DRSC02568,inactive
CG31872,DRSC02572,inactive
HGTX,DRSC09319,inactive
HGTX,DRSC11181,inactive
Gpat4,DRSC04345,inactive
IntS1,DRSC04343,inactive
Dark,DRSC05922,inactive
lmd,DRSC15618,inactive
FarO,DRSC18475,inactive
Uba3,DRSC06377,inactive
ine,DRSC00822,inactive
CG42249,DRSC19383,inactive
CG42249,DRSC19826,inactive
Npc2a,DRSC00698,inactive
CG4009,DRSC15536,inactive
vers,DRSC10715,inactive
sty,DRSC08737,inactive
CG34460,DRSC06974,inactive
l(1)G0469,DRSC19412,inactive
l(1)G0469,DRSC19462,inactive
CG15710,DRSC06581,inactive
